Laboratory results reported in article PMC7438092.
Results are given in words; binding and its absence hold for the method and conditions named. Some results given as binding are weak or reduced against the parent protein; the word gives no strength. Where a sequence is shown, tags or fusion partners need not be part of it.

Experiments:
Settings in all cases: remark: other sources report otherwise
[1] = target: T1, Vps24 (Saccharomyces cerevisiae ESCRT-III subunit), full length, wild type (Saccharomyces cerevisiae), P36095; experiment: co-sedimentation; pelletation without liposomes; purified proteins at 2 mg/ml, 175,000g for 45 min at 20°C, supernatant and pellet by SDS-PAGE; both purified
T1 chain: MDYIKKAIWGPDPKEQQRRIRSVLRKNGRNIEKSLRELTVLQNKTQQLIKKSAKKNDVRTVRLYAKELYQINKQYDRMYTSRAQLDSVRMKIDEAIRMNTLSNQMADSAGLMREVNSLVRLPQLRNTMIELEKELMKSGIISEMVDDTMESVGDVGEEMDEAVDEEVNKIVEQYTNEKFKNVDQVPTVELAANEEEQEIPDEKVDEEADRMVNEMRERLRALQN

[2] = target: T1, Vps24 (Saccharomyces cerevisiae …); experiment: cryo-EM structure; helical reconstruction of filaments of purified Vps24 concentrated to 5.0 mg/ml, 4°C overnight, polymers enriched by ultracentrifugation; 100 mM NaCl, 20 mM tris (pH 8); domain-swapped dimers in a double-stranded filament; both purified
[3] = target: T1, Vps24 (Saccharomyces cerevisiae …); experiment: negative-stain electron microscopy; purified protein looked at for filaments, 2% uranyl acetate; wild type at 0.5 to 4.0 mg/ml incubated for 1 or 24 hours; both purified

Measured: binding

B1: Vps24 (Saccharomyces cerevisiae ESCRT-III subunit), full length, wild type, P36095 1-224 (protein)
chain: T1 chain
binds: all assays above
